According to US20030162221A1:
Results are given in words; binding and its absence hold for the method and conditions named. In cells and extracts the contact can be indirect. Some entries that bind do so weakly or less than the wild type. For some of these results: Where a sequence is shown, tags or fusion partners need not be part of it.

Chains of the proteins cited; added tags and fusions are not shown.
UniProt P22579: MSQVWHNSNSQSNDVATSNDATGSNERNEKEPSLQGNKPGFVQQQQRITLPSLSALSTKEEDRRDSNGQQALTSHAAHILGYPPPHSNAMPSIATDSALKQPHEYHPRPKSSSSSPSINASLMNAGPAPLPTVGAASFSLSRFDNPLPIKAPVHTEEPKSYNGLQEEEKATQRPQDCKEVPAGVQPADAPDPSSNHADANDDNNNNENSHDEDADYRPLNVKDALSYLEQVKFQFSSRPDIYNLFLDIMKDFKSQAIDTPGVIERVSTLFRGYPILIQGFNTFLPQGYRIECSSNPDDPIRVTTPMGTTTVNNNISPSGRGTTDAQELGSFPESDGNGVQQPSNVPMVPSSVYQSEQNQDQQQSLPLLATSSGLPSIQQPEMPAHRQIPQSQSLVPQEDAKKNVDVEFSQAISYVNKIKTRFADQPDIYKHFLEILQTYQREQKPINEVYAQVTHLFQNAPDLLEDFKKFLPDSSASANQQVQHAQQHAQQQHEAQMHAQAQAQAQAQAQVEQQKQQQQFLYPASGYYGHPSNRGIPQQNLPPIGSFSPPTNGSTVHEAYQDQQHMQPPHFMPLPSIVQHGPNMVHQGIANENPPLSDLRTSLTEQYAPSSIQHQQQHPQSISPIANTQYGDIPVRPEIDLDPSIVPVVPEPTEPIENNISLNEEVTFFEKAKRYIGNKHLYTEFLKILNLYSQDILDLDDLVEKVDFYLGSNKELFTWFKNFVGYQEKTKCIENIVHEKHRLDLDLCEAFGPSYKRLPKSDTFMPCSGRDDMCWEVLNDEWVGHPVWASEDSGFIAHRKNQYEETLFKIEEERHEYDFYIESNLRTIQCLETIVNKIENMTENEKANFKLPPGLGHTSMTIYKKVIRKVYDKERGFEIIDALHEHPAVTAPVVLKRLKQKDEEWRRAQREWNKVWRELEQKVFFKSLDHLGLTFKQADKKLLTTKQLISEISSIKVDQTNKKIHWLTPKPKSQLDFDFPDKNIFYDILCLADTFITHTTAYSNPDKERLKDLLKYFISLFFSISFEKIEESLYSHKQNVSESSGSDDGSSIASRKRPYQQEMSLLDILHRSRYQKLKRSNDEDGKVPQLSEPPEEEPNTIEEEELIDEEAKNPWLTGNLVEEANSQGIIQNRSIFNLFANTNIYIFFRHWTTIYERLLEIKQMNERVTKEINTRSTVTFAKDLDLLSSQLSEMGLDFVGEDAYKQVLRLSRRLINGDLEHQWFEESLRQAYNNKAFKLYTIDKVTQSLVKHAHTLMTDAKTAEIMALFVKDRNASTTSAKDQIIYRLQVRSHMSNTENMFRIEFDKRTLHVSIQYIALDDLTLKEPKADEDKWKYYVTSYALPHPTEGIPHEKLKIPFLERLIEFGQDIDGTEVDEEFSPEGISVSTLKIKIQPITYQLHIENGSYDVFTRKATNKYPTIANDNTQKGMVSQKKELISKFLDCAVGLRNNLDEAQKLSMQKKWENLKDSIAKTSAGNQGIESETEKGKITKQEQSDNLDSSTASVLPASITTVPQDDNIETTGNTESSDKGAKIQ

T1: Mob1 (Saccharomyces cerevisiae) (UniProt P40484)
T1 sequence (looked up): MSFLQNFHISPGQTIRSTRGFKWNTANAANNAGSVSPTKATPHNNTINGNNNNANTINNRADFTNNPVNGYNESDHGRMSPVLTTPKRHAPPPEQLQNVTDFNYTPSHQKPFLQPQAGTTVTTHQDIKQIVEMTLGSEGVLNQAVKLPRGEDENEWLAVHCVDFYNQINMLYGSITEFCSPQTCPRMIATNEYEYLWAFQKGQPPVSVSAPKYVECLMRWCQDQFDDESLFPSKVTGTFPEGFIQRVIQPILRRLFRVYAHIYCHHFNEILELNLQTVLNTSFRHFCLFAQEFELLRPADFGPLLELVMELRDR

T2: Kss1 (Saccharomyces cerevisiae) (UniProt P14681)
T2 sequence (looked up): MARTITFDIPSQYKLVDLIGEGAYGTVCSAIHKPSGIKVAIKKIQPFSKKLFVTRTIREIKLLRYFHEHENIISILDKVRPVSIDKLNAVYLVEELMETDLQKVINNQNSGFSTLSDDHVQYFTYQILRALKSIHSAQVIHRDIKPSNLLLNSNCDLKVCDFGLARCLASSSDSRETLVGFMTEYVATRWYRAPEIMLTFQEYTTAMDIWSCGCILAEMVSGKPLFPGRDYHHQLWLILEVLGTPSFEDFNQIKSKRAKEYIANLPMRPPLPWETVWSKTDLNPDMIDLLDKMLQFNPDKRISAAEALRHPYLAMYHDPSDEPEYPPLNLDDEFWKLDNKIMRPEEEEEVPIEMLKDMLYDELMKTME

B1: Dbf2 (protein, Saccharomyces cerevisiae, UniProt P22204 1-572, looked up)
chain: MLSKSEKNVDLLAGNMSNLSFDGHGTPGGTGLFPNQNITKRRTRPAGINDSPSPVKPSFFPYEDTSNMDIDEVSQPDMDVSNSPKKLPPKFYERATSNKTQRVVSVCKMYFLEHYCDMFDYVISRRQRTKQVLEYLQQQSQLPNSDQIKLNEEWSSYLQREHQVLRKRRLKPKNRDFEMITQVGQGGYGQVYLARKKDTKEVCALKILNKKLLFKLNETKHVLTERDILTTTRSEWLVKLLYAFQDLQSLYLAMEFVPGGDFRTLLINTRCLKSGHARFYISEMFCAVNALHDLGYTHRDLKPENFLIDAKGHIKLTDFGLAAGTISNERIESMKIRLEKIKDLEFPAFTEKSIEDRRKMYNQLREKEINYANSMVGSPDYMALEVLEGKKYDFTVDYWSLGCMLFESLVGYTPFSGSSTNETYDNLRRWKQTLRRPRQSDGRAAFSDRTWDLITRLIADPINRLRSFEHVKRMSYFADINFSTLRSMIPPFTPQLDSETDAGYFDDFTSEADMAKYADVFKRQDKLTAMVDDSAVSSKLVGFTFRHRNGKQGSSGILFNGLEHSDPFSTFY
B2: Dbf20 (protein, Saccharomyces cerevisiae, UniProt P32328 1-564, looked up)
chain: MFSRSDREVDDLAGNMSHLGFYDLNIPKPTSPQAQYRPARKSENGRLTPGLPRSYKPCDSDDQDTFKNRISLNHSPKKLPKDFHERASQSKTQRVVNVCQLYFLDYYCDMFDYVISRRQRTKQVLRYLEQQRSVKNVSNKVLNEEWALYLQREHEVLRKRRLKPKHKDFQILTQVGQGGYGQVYLAKKKDSDEICALKILNKKLLFKLNETNHVLTERDILTTTRSDWLVKLLYAFQDPESLYLAMEFVPGGDFRTLLINTRILKSGHARFYISEMFCAVNALHELGYTHRDLKPENFLIDATGHIKLTDFGLAAGTVSNERIESMKIRLEEVKNLEFPAFTERSIEDRRKIYHNMRKTEINYANSMVGSPDYMALEVLEGKKYDFTVDYWSLGCMLFESLVGYTPFSGSSTNETYENLRYWKKTLRRPRTEDRRAAFSDRTWDLITRLIADPINRVRSFEQVRKMSYFAEINFETLRTSSPPFIPQLDDETDAGYFDDFTNEEDMAKYADVFKRQNKLSAMVDDSAVDSKLVGFTFRHRDGKQGSSGILYNGSEHSDPFSTFY
B3: Dig2/Rst2 (protein, Saccharomyces cerevisiae, UniProt Q03373 1-323, looked up)
chain: MNKEEQEDPQQEQISTVQENDPRNLQQLGMLLVSPGLDEDRLSEKMISKIKKSRDIEKNQKLLISRLSQKEEDHSGKPPTITTSPAEKTVPFKSLNHSLKRKRVPPALNFSDIQASSHLHGSKSAPPNITRFPQHKNSLRVRYMGRMAPTNQDYHPSVANSYMTATYPYPYTGLPPVPCYPYSSTPTQTHAYEGYYSPMYPGPLYNNGIIPADYHAKRKKLAGRSPHLEDLTSRKRTFVSKHHNGDPIISKTDEDIECSVTKNSLSEGASLNDDADDDNDKERIIIGEISLYDDVFKFEVRDDKNDYMKACETIWTEWHNLKK
B4: Fkh2 (protein, Saccharomyces cerevisiae, UniProt P41813 1-862, looked up)
chain: MSSSNFNEMNELNMTQTNYGSTKYTAQHHQGVINAIISSLTAPDQPTTVSLQYSNDKNMATEIQAYAKLSGPNWTYYVKDLEVSIGRNTDPLNSALQENSDGVKNSYRVNIDLGPAKVVSRKHAIIKYNMNIGGWELHILGRNGAKVNFQRTHNGPNNPPIRLSSGTLLDIGGTQMMFILPDSDPVVAPICIEHLMPNLINMFGLEGNNNPLLRDIIKQSNYAKQRQLTSNQQIKGFKLYGSGGNAPFGSGANLGPSEQGIFNNNNNSKNKNGYFTSINPNYTASTTTSNTINPQAASPQGPPNTIIAANFVDSYKSSNAYPQALDFTSDLSHDENRNVKPPHSYATMITQAILSSPEGVISLADIYKYISSNYAYYRFAKSGWQNSIRHNLSLNKAFEKVPRRPNEPGKGMKWRISESYQQEFLNKWNTGKVGKIRRGSSVARQLQLHMAKFNSLPMEMDYRLSLNMAQPPKRQLQSHNVLEPSNNNIIEGFVQHVPSKGNLPASQQSQPPVSHQNQSQQPPPQEQRQEIQFTFADTQNRNIALARPIKTPQLQAPNSNANLNQNNMKEYKESLHPPAISISQMNRQSPNNALVSFTNACANSKIINNISDSADKSTNNNGGTKMNLPAISTSSLDENGNLEPTTTTSSGNSNSVPQTGTTTSSLAANSLRLSQPYDTLLRSPTKAFHITAMEAYTPERGSANRARSPLHSNSNNTNNNGANNSNLQTSGMENKQTGLVLDSNVLKSMESNNDNRRLTPSTSKSQNVKSSPGVWNLLQFSSTNNTPAADSGGNKRGFSINPDIKAKENENATSEKDSDSNSNDLETKDINSSPLKNQGGSTANAKELILDTDGAKISIINN

Experiments:
Test in all cases: anti-FLAG co-IP, LC-MS/MS
[1] = biological target: T1, Mob1 (Saccharomyces cerevisiae)
[2] = biological target: T2, Kss1 (Saccharomyces cerevisiae)
[3] = biological target: Sin3 (Saccharomyces cerevisiae) (UniProt P22579)

Row | Binder | binding [1] | also measured
1 | B1 | binds | –
2 | B2 | binds | –
3 | B3 | – | binding [2]: binds
4 | B4 | – | binding [3]: binds
